Laboratory results: publication PMC6031384
Results are given in words; binding and its absence hold for the method and conditions named. In cells and extracts the contact can be indirect. Here binding means that the protein was enriched with, or labelled near, the bait; the list need not be complete.

Molecular target: VPS26 (human (endogenous in HeLa))
Experiment: affinity purification with mass spectrometry; SILAC; three HeLa cell lines, TBC1D5 knockdown in the light-labelled cells; cells treated with the crosslinker DSP (0.5 mM, 20 min, room temperature); lysis in Tris-buffered saline with 0.5% Triton X-100; VPS26 recovered by IP; LC-MSMS

B1: KIAA1033 (protein, UniProt Q2M389 1-1173)
chain: MAVETLSPDWEFDRVDDGSQKIHAEVQLKNYGKFLEEYTSQLRRIEDALDDSIGDVWDFNLDPIALKLLPYEQSSLLELIKTENKVLNKVITVYAALCCEIKKLKYEAETKFYNGLLFYGEGATDASMVEGDCQIQMGRFISFLQELSCFVTRCYEVVMNVVHQLAALYISNKIAPKIIETTGVHFQTMYEHLGELLTVLLTLDEIIDNHITLKDHWTMYKRLLKSVHHNPSKFGIQEEKLKPFEKFLLKLEGQLLDGMIFQACIEQQFDSLNGGVSVSKNSTFAEEFAHSIRSIFANVEAKLGEPSEIDQRDKYVGICGLFVLHFQIFRTIDKKFYKSLLDICKKVPAITLTANIIWFPDNFLIQKIPAAAKLLDRKSLQAIKIHRDTFLQQKAQSLTKDVQSYYVFVSSWMMKMESILSKEQRMDKFAEDLTNRCNVFIQGFLYAYSISTIIKTTMNLYMSMQKPMTKTSVKALCRLVELLKAIEHMFYRRSMVVADSVSHITQHLQHQALHSISVAKKRVISDKKYSEQRLDVLSALVLAENTLNGPSTKQRRLIVSLALSVGTQMKTFKDEELFPLQVVMKKLDLISELRERVQTQCDCCFLYWHRAVFPIYLDDVYENAVDAARLHYMFSALRDCVPAMMHARHLESYEILLDCYDKEIMEILNEHLLDKLCKEIEKDLRLSVHTHLKLDDRNPFKVGMKDLALFFSLNPIRFFNRFIDIRAYVTHYLDKTFYNLTTVALHDWATYSEMRNLATQRYGLVMTEAHLPSQTLEQGLDVLEIMRNIHIFVSRYLYNLNNQIFIERTSNNKHLNTINIRHIANSIRTHGTGIMNTTVNFTYQFLKKKFYIFSQFMYDEHIKSRLIKDIRFFREIKDQNDHKYPFDRAEKFNRGIRKLGVTPEGQSYLDQFRQLISQIGNAMGYVRMIRSGGLHCSSNAIRFVPDLEDIVNFEELVKEEGLAEETLKAARHLDSVLSDHTRNSAEGTEYFKMLVDVFAPEFRRPKNIHLRNFYIIVPPLTLNFVEHSISCKEKLNKKNKIGAAFTDDGFAMGVAYILKLLDQYREFDSLHWFQSVREKYLKEIRAVAKQQNVQSASQDEKLLQTMNLTQKRLDVYLQEFELLYFSLSSARIFFRADKTAAEENQEKKEKEEETKTSNGDLSDSTVSADPVVK
With B1 the binding was “binds”.
